# From publication PMC7819943, “Rice protein-binding microarrays: a tool to detect cis-acting elements near promoter regions in rice”
# The other results are listed elsewhere or left out.
# Target: T1, OsSMF1 (Oryza sativa, UniProt Q6ZLB0 1-436)
# T1 sequence: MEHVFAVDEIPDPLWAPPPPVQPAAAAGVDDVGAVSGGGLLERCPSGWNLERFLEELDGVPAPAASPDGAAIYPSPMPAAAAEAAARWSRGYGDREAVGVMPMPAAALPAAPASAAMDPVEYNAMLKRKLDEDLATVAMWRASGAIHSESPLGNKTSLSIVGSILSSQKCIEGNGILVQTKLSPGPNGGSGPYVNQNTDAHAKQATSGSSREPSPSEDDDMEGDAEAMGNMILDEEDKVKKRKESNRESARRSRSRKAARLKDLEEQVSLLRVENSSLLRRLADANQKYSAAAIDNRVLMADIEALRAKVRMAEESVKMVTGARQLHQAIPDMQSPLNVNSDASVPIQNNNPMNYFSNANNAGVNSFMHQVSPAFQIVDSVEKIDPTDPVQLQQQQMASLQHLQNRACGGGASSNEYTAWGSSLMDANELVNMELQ
# Assay: protein-binding microarray (RPBM); PBS, 2% BSA, 51.3 ng/ul salmon testes DNA, 50 uM zinc acetate, 200 nM TF, 25 C, 1 h; high values mean tight binding
# Settings: protein: recombinant; tags: N-terminal polyhistidine and DsRed monomer fusion (pET32a); chain copies: 2; label: CyDye5-dUTP incorporated in the synthesized complementary strand; 3' TTTTT single-stranded linker to array surface; dsDNA, one strand shown
# Method in brief: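 Transcription factors were made in E. coli BL21-CodonPlus as N-terminal fusions to a polyhistidine tag and DsRed, then purified on Ni–NTA. After primer extension with Cy5-dUTP and blocking with 2% BSA, a custom Agilent array was exposed for 1 h at 25 °C to 200 nM protein in PBS, 2% BSA, salmon testes DNA and 50 µM zinc acetate. Washed arrays were scanned on an Axon 4000B, and the binding signal is per-feature fluorescence intensity in arbitrary units.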
row,Sequence,binding signal
1,GCCTAGTTCAATTCACCCGTTTTCTGGCCCAATGGAAATTCGGAGTCACCTAGTGCAG,3360 fluorescence intensity (a.u.)
2,GCGGGGAGGATGAGGAGGGCTGACTAGTGGGACGACGCGGCGGAGTCACCTAGTGCAG,3220 fluorescence intensity (a.u.)
3,ATACCATATGAGCAAATACGCAGGAATCAGTACTGTATTTCGGAGTCACCTAGTGCAG,39500 fluorescence intensity (a.u.)
4,AGAAAGTACTGTAACGTCGACGTCGATTGGTCAAGGCGCCCGGAGTCACCTAGTGCAG,3410 fluorescence intensity (a.u.)
5,GTTCAGAATGTGGTGGCGACGTAAGGTGATTTGGAAGGCGCGGAGTCACCTAGTGCAG,43500 fluorescence intensity (a.u.)
6,CAGAATAATGTGATGCGAACACACATCATCAGTATTTGTACGGAGTCACCTAGTGCAG,4830 fluorescence intensity (a.u.)
7,TTCCTTCTCCTTCGTGCGTGTTTTAGCGTGTAACTGCTTCCGGAGTCACCTAGTGCAG,3220 fluorescence intensity (a.u.)
8,AAAATTATCATAATAAATAATTGGAGCTGAATCGAGTAATCGGAGTCACCTAGTGCAG,28900 fluorescence intensity (a.u.)
9,GGGCTACAAATACCCCGGCCACGTGACGCCACCGGATGCACGGAGTCACCTAGTGCAG,3740 fluorescence intensity (a.u.)
10,CTCCACCAACCTTGCCACCATTCTGTCCAGTCAAAACTTGCGGAGTCACCTAGTGCAG,3990 fluorescence intensity (a.u.)
11,TGGATCATGCATGCAAGTCACAGCAAGATCATGGCAAACACGGAGTCACCTAGTGCAG,3340 fluorescence intensity (a.u.)
12,AAACTTTAGAATCACATGTTACGTGTCACTGATTATAATACGGAGTCACCTAGTGCAG,7950 fluorescence intensity (a.u.)
13,TAAACATAAATTTGTCAGATACGTGTATTATTGTTTCACGCGGAGTCACCTAGTGCAG,3860 fluorescence intensity (a.u.)
14,ACTCTAAATTTAAACTTTTCACTCAATTGAAACTTTTCAACGGAGTCACCTAGTGCAG,24700 fluorescence intensity (a.u.)
15,ACGAGCGCGCCACGTGTACCGCTGGATCTTCGCGCATACGCGGAGTCACCTAGTGCAG,15300 fluorescence intensity (a.u.)
16,TTTGACTTCGGTTTTGGTATACGGCTGAGTCAGCATGAGACGGAGTCACCTAGTGCAG,19500 fluorescence intensity (a.u.)
17,GAGACAGGTAGACGAACGAGGTGACGTCACTCCATCGAGCCGGAGTCACCTAGTGCAG,17100 fluorescence intensity (a.u.)
18,CTCTCTTCAGCTTGCCATATCTCTGTTGTTGACTTGCAAGCGGAGTCACCTAGTGCAG,16200 fluorescence intensity (a.u.)
19,ACAAAGATATATGAACAAAGTATGAGTCAGTACATTAATGCGGAGTCACCTAGTGCAG,7500 fluorescence intensity (a.u.)
20,ATGGGGACGGCGAGGCTGGATACGGCCGTGGACGCGGCGGCGGAGTCACCTAGTGCAG,3320 fluorescence intensity (a.u.)
21,TGTCCCAGTCTTCATGAGGTGGACAGGTTTCACCCTCTCTCGGAGTCACCTAGTGCAG,3240 fluorescence intensity (a.u.)
22,GGCATAGTATATTTTGACCTGATAATTACAGCCTGACGTGCGGAGTCACCTAGTGCAG,4020 fluorescence intensity (a.u.)
23,TCCGGCGCGCCTCGCCGTCAACCCACGCGGCGGCGCGGCGCGGAGTCACCTAGTGCAG,3440 fluorescence intensity (a.u.)
24,TTGGTTGGTCGAGGTTGATCTAACGCAGCCATTAGTCAAACGGAGTCACCTAGTGCAG,24700 fluorescence intensity (a.u.)
25,CGTGTGTGTGTTGCAGGTTTCACTGCAGTTGCTGGAGTTTCGGAGTCACCTAGTGCAG,3560 fluorescence intensity (a.u.)
26,ATGGCGGTTTCGCTGACATGGCGCTTACATGGCGGTGTTGCGGAGTCACCTAGTGCAG,12800 fluorescence intensity (a.u.)
27,CATAAGTGCATGGACAATTCCTCTAATGCCATGCACTGCCCGGAGTCACCTAGTGCAG,26800 fluorescence intensity (a.u.)

row,Sequence,binding signal
1,ACCACGGGGAAACCATGCATCAACACCGTGACGCCACGGTCGGAGTCACCTAGTGCAG,3230 fluorescence intensity (a.u.)
2,GACGTCACACATTCATCCACGTCATCGATCCGCGGGACAACGGAGTCACCTAGTGCAG,11900 fluorescence intensity (a.u.)
3,AACAACCCAACCCAACCGATGCGCGACGCAGTGACGCAGGCGGAGTCACCTAGTGCAG,4930 fluorescence intensity (a.u.)
4,CGTCGCCGGCACGGCAGAGCACAAGACGTGGATGTCCAAGCGGAGTCACCTAGTGCAG,4310 fluorescence intensity (a.u.)
5,ACTCATATAGTGTGGTCATACTGAGTCACTGATCAACCAACGGAGTCACCTAGTGCAG,8810 fluorescence intensity (a.u.)
6,TGGATTTCAGGTAAACAAACGGTTACCGCGATAACTGTTTCGGAGTCACCTAGTGCAG,3350 fluorescence intensity (a.u.)
7,ATCCCTACTCGCTCCTCGTCCACGCCACTTCAGTAGGTTGCGGAGTCACCTAGTGCAG,4890 fluorescence intensity (a.u.)
8,CATCCTAACGGATTATTCTCTCAACCCCACGAACCATTCACGGAGTCACCTAGTGCAG,19200 fluorescence intensity (a.u.)
9,ACAAACGATATACGTATATCCACGCAACGAAAGATTTGTTCGGAGTCACCTAGTGCAG,3460 fluorescence intensity (a.u.)
10,GACTAATTGGTGGATGCATGAACCGACGTGTCGATTTTCACGGAGTCACCTAGTGCAG,4510 fluorescence intensity (a.u.)
11,GGCTCGCAGAAAGGCGGACGACAAGGGCTCAGCAGGGTCACGGAGTCACCTAGTGCAG,39500 fluorescence intensity (a.u.)
12,ACCAACAGGGCCGGCCCACGAGCCGCCACGCCGCACGCGACGGAGTCACCTAGTGCAG,3230 fluorescence intensity (a.u.)
13,CCCATTATCCATAAGTTAACATATACTCCCTCCGTCATAGCGGAGTCACCTAGTGCAG,3800 fluorescence intensity (a.u.)
14,TACAATTAGACAATTAATTATTTCGGTAGAGACTGGAAACCGGAGTCACCTAGTGCAG,22300 fluorescence intensity (a.u.)
15,CAAGGGCGGCAAGCCGACGTGGCACACGGCGCGCTGGACGCGGAGTCACCTAGTGCAG,6950 fluorescence intensity (a.u.)
16,TCACCCACCACCCTTCCCTTACCCACTCACTGACACGTGGCGGAGTCACCTAGTGCAG,11800 fluorescence intensity (a.u.)
17,GCTTGCACAACTAGTGCATCCCTGTCACTGTTTGGCTAGCCGGAGTCACCTAGTGCAG,3600 fluorescence intensity (a.u.)
18,AAGCTTCGCCGCCACTCGAGCCCGCCACGTCGACATCACCCGGAGTCACCTAGTGCAG,17200 fluorescence intensity (a.u.)
19,ACTGTAGCACCACATTGTTAAATCATGACGCAATTAGGCTCGGAGTCACCTAGTGCAG,5020 fluorescence intensity (a.u.)
20,TTTCGGGATCCGACACGGGCTGAATCCGGCCCATCCAAACCGGAGTCACCTAGTGCAG,37800 fluorescence intensity (a.u.)
21,GCGCGTGACATCATCTGGTACGAACCAAACAACCCCTGCACGGAGTCACCTAGTGCAG,8460 fluorescence intensity (a.u.)
22,CTCAATTATATATGACTCATGTGTAGTAATAAAACTTATACGGAGTCACCTAGTGCAG,3470 fluorescence intensity (a.u.)
23,ATTCTCTTGCACTTATTCCAGCCTACAGGGACAGTAAATCCGGAGTCACCTAGTGCAG,37200 fluorescence intensity (a.u.)
24,GAAAGCAAATAATGAACTCAAATCAAATAGCGTCATATGGCGGAGTCACCTAGTGCAG,3390 fluorescence intensity (a.u.)
25,GCGGCGCGAAACCGCACATGGGCTCCACGTGCTAAGAACACGGAGTCACCTAGTGCAG,4100 fluorescence intensity (a.u.)
26,AGAAGGTTGGAATTTAGTAAGTTGCAGTTACAAATTCAAGCGGAGTCACCTAGTGCAG,53200 fluorescence intensity (a.u.)
27,CAAGGATTGGGCATTTTGGAGTGTTGATCTTGTGGGAGGACGGAGTCACCTAGTGCAG,33400 fluorescence intensity (a.u.)

# A stretch taken from the entries so far:
row,Sequence,binding signal
11,GGCTCGCAGAAAGGCGGACGACAAGGGCTCAGCAGGGTCACGGAGTCACCTAGTGCAG,39500 fluorescence intensity (a.u.)
12,ACCAACAGGGCCGGCCCACGAGCCGCCACGCCGCACGCGACGGAGTCACCTAGTGCAG,3230 fluorescence intensity (a.u.)
13,CCCATTATCCATAAGTTAACATATACTCCCTCCGTCATAGCGGAGTCACCTAGTGCAG,3800 fluorescence intensity (a.u.)
14,TACAATTAGACAATTAATTATTTCGGTAGAGACTGGAAACCGGAGTCACCTAGTGCAG,22300 fluorescence intensity (a.u.)
